# Results are given in words; binding and its absence hold for the method and conditions named.
# T1: NP2 PTX (pentraxin domain of neuronal pentraxin 2) (human) (UniProt P47972)
# T1 sequence: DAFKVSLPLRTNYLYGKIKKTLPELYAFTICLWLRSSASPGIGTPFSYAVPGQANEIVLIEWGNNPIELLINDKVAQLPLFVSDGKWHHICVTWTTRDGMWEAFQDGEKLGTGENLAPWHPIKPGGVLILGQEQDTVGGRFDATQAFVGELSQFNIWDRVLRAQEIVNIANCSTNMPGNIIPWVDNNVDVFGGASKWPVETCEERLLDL
# Key:
# [1] = target: T1, NP2 PTX (pentraxin domain of neuronal pentraxin 2) (human); assay: SEC; SEC profiles of the purified NP constructs (Fig. S2); Superdex 200, 10 mM Hepes-NaOH pH 7.4, 150 mM NaCl, 4 °C; both purified
# [2] = target: T1, NP2 PTX (pentraxin domain of neuronal pentraxin 2) (human); assay: mass photometry; Two^MP, 200 nM NP, 10 mM Hepes-NaOH pH 7.4, 150 mM NaCl, with 3 mM CaCl2, 25 °C; both purified
# [3] = target: T1, NP2 PTX (pentraxin domain of neuronal pentraxin 2) (human); assay: mass photometry; Two^MP, 200 nM NP, 10 mM Hepes-NaOH pH 7.4, 150 mM NaCl, without CaCl2, 25 °C; both purified
# [4] = target: NP1 PTX (pentraxin domain of neuronal pentraxin 1) (human) (UniProt Q15818); assay: SEC; SEC profiles of the purified NP constructs (Fig. S2); Superdex 200, 10 mM Hepes-NaOH pH 7.4, 150 mM NaCl, 4 °C; both purified
# [5] = target: NPR PTX (pentraxin domain of neuronal pentraxin receptor) (human) (UniProt O95502); assay: as above
binder,measurement,setting,value
"NP2 PTX (pentraxin domain of neuronal pentraxin 2) (domain or fragment, human, neuronal pentraxin 2 (NP2, Nptx2), human, pentraxin (PTX) domain; also called NP2 PTX WT; PTX domain of NP2; source: Expi293 cells, secreted, purified (Ni-NTA, SEC)) DAFKVSLPLRTNYLYGKIKKTLPELYAFTICLWLRSSASPGIGTPFSYAVPGQANEIVLIEWGNNPIELLINDKVAQLPLFVSDGKWHHICVTWTTRDGMWEAFQDGEKLGTGENLAPWHPIKPGGVLILGQEQDTVGGRFDATQAFVGELSQFNIWDRVLRAQEIVNIANCSTNMPGNIIPWVDNNVDVFGGASKWPVETCEERLLDL",binding,[1],no binding
same,binding,[2],no binding (tested: 200 nM)
same,binding,[3],no binding (tested: 200 nM)
"NP1 PTX (pentraxin domain of neuronal pentraxin 1) (domain or fragment, UniProt Q15818 226-428) DKFQLTFPLRTNYMYAKVKKSLPEMYAFTVCMWLKSSATPGVGTPFSYAVPGQANELVLIEWGNNPMEILINDKVAKLPFVINDGKWHHICVTWTTRDGVWEAYQDGTQGGSGENLAPYHPIKPQGVLVLGQEQDTLGGGFDATQAFVGELAHFNIWDRKLTPGEVYNLATCSTKALSGNVIAWAESHIEIYGGATKWTFEAC",binding,[4],no binding
"NPR PTX (pentraxin domain of neuronal pentraxin receptor) (domain or fragment, UniProt O95502 292-494) DAFKISIPIRNNYMYARVRKALPELYAFTACMWLRSRSSGTGQGTPFSYSVPGQANEIVLLEAGHEPMELLINDKVAQLPLSLKDNGWHHICIAWTTRDGLWSAYQDGELQGSGENLAAWHPIKPHGILILGQEQDTLGGRFDATQAFVGDIAQFNLWDHALTPAQVLGIANCTAPLLGNVLPWEDKLVEAFGGATKAAFDVC",binding,[5],no binding
